Results published in the supplement of paper PMC9233669.
Variants at the background level are over-represented here.

Tests used:
biotinyl-Met-oxazolone = test: self-aminoacylation, catalytic enhancement (BMO) (fold over background); higher = more active; k-Seq, kA / k0A0; sequences stand for … in GGGAAUGGAUCCACAUCUACGAAUUC…UUCACUGCAGACUUGACGAAGCUG
How it was run: (§1)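 Each biotinyl-aminoacyl-oxazolone, at 2–1250 μM, was incubated with mutagenized RNA pools (0.43 μM) carrying a 21-nt variable region. The 50 μL reactions contained HEPES/NaCl/KCl/MgCl2/CaCl2 buffer with 5% acetonitrile at pH 6.9–7.0 and ran for 90 minutes at room temperature. After streptavidin capture, RNA was measured by qPCR in triplicate and by Illumina sequencing, and catalytic enhancement was calculated as median kA over the uncatalyzed rate from a pseudo-first-order fit of per-sequence fraction reacted.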

biotinyl-Val-oxazolone = test: self-aminoacylation, catalytic enhancement (BVO) (fold over background); higher = more active; k-Seq, kA / k0A0; sequences stand for … in GGGAAUGGAUCCACAUCUACGAAUUC…UUCACUGCAGACUUGACGAAGCUG
How it was run: as §1

biotinyl-Ile-oxazolone = test: self-aminoacylation, catalytic enhancement (BIO) (fold over background); higher = more active; k-Seq, kA / k0A0; sequences stand for … in GGGAAUGGAUCCACAUCUACGAAUUC…UUCACUGCAGACUUGACGAAGCUG
How it was run: as §1

biotinyl-Leu-oxazolone = test: self-aminoacylation, catalytic enhancement (BLO) (fold over background); higher = more active; k-Seq, kA / k0A0; sequences stand for … in GGGAAUGGAUCCACAUCUACGAAUUC…UUCACUGCAGACUUGACGAAGCUG
How it was run: as §1

Row | Sequence | self-aminoacylation (biotinyl-Met-oxazolone) | self-aminoacylation (biotinyl-Val-oxazolone) | self-aminoacylation (biotinyl-Ile-oxazolone) | self-aminoacylation (biotinyl-Leu-oxazolone)
1 | AACUUUGCUAAUAGUCGCAAC [Fam3.1 aminoacylation ribozyme variant] | 1.71 | 1.77 | – | –
2 | AAGACUGCUAAUAGUCGCAAG [Fam3.1 aminoacylation ribozyme variant] | – | 1.32 | 1.58 | 1.12
3 | AAGCAUGCUAAUAGUCGCAAG [Fam3.1 aminoacylation ribozyme variant] | – | 1.93 | – | 1.8
4 | AAGCUUGCUAAUAGCCGCAAG [Fam3.1 aminoacylation ribozyme variant] | – | 1.57 | 1.76 | –
5 | AAGCUUGUUAAUAGUCGCAAG [Fam3.1 aminoacylation ribozyme variant] | – | 1.74 | – | –
6 | AAGUGUGCUAAUAGUCGCCAG [Fam3.1 aminoacylation ribozyme variant] | 1.86 | 1.43 | 1.83 | –
7 | AAGUUUGCUAAUAGUCGCCAG [Fam3.1 aminoacylation ribozyme variant] | – | 0.997 | 1.02 | –
8 | AAGUUUGCUAGUAGUCCCAAG [Fam3.1 aminoacylation ribozyme variant] | 0.75 | 1.14 | 1.01 | –
9 | AAGUUUGCUUAUAGUCGCCAG [Fam3.1 aminoacylation ribozyme variant] | 0.883 | 0.955 | 1.08 | –
10 | AAGUUUGUUAAUAGUCGCAGG [Fam3.1 aminoacylation ribozyme variant] | 1.81 | 1.55 | 1.75 | –
11 | AAUUUUGAUAAUAGUCGCAAG [Fam3.1 aminoacylation ribozyme variant] | – | 1.39 | 1.7 | –
12 | AGGUUUGCCAAUAGUCGCAAG [Fam3.1 aminoacylation ribozyme variant] | – | 1.92 | – | –
13 | AUAACCCUGGUCAUCGUGUGA [Fam2.1 aminoacylation ribozyme variant] | – | 1.6 | 1.54 | –
14 | AUCCACCUAGGUCAUAGGGUG [Fam2.2 aminoacylation ribozyme variant] | 1.66 | 1.88 | 1.66 | –
15 | AUGACACUGGUCAUCGAGUGA [Fam2.1 aminoacylation ribozyme variant] | – | 3.05 | 3.42 | –
16 | AUGACCCUGGUCGUCGAGUGA [Fam2.1 aminoacylation ribozyme variant] | – | 0.888 | 1.01 | –
17 | AUUAACCUAGGACAUCGGGUG [Fam2.2 aminoacylation ribozyme variant] | 1.96 | 2 | 1.84 | –
18 | AUUACACUGGUCAUGGAGUGA [Fam2.1 aminoacylation ribozyme variant] | – | – | 1.99 | –
19 | AUUACCCUGGGCAUCGAGUUA [Fam2.1 aminoacylation ribozyme variant] | 0.642 | 1.11 | 0.909 | –

Row | Sequence | self-aminoacylation (biotinyl-Met-oxazolone) | self-aminoacylation (biotinyl-Val-oxazolone) | self-aminoacylation (biotinyl-Ile-oxazolone) | self-aminoacylation (biotinyl-Leu-oxazolone)
20 | AUUACCCUGGUCAGCGAGUGG [Fam2.1 aminoacylation ribozyme variant] | – | 1.41 | 1.84 | –
21 | AUUACCCUGGUCAUCGAGAAA [Fam2.1 aminoacylation ribozyme variant] | – | 1.53 | 1.43 | –
22 | AUUACCCUGGUCAUCGAGGGG [Fam2.1 aminoacylation ribozyme variant] | – | 1.86 | 1.27 | –
23 | AUUACCCUGGUCAUCGCGUGA [Fam2.1 aminoacylation ribozyme variant] | – | 9.74 | 8.09 | –
24 | AUUACCCUGGUGAGCGAGUGA [Fam2.1 aminoacylation ribozyme variant] | – | 1.82 | – | –
25 | AUUAUCCUCGUCAUCGAGUGA [Fam2.1 aminoacylation ribozyme variant] | – | 1.74 | 1.82 | –
26 | AUUCAACUAGGACAUCGGGUG [Fam2.2 aminoacylation ribozyme variant] | – | 1.9 | – | –
27 | AUUCACAUAGGUCAUCGAGUG [Fam2.2 aminoacylation ribozyme variant] | 1.92 | 1.45 | 1.56 | –
28 | AUUCACAUAGGUCAUCUGGUG [Fam2.2 aminoacylation ribozyme variant] | – | 1.96 | – | –
29 | AUUCACCGAGGUCAUCGGUUG [Fam2.2 aminoacylation ribozyme variant] | – | 1.77 | 1.93 | –
30 | AUUCACCUAGAUCAGCGGGUG [Fam2.2 aminoacylation ribozyme variant] | – | 1.83 | 1.99 | –
31 | AUUCACCUAUGUCAUUGGGUG [Fam2.2 aminoacylation ribozyme variant] | – | 1.64 | 1.69 | –
32 | AUUCACCUCGGUCAUCGAGUG [Fam2.2 aminoacylation ribozyme variant] | – | 1.87 | 1.85 | –
33 | AUUCACCUGGCUCAUCGGGUG [Fam2.2 aminoacylation ribozyme variant] | 1.79 | 3.81 | 2.18 | –
34 | AUUCACUUAGAUCAUCGGGUG [Fam2.2 aminoacylation ribozyme variant] | – | 1.81 | 1.74 | –
35 | AUUCUCCUAGGUCAACGGGUG [Fam2.2 aminoacylation ribozyme variant] | 6.57 | 3.61 | 3.79 | –
36 | CAGUUUGCUAAUAGUCGCAUG [Fam3.1 aminoacylation ribozyme variant] | 1.91 | 1.61 | 1.84 | –
37 | CCACACUGUAAGCAAUCGGUC [Fam1B.1 aminoacylation ribozyme variant] | – | 1.14 | 1.06 | –
38 | CCACACUUCAAGAAAGCGGUC [Fam1B.1 aminoacylation ribozyme variant] | – | 0.716 | 0.839 | –

Row | Sequence | self-aminoacylation (biotinyl-Met-oxazolone) | self-aminoacylation (biotinyl-Val-oxazolone) | self-aminoacylation (biotinyl-Ile-oxazolone) | self-aminoacylation (biotinyl-Leu-oxazolone)
39 | CCACACUUCAAGCAUUCGAUC [Fam1B.1 aminoacylation ribozyme variant] | – | 0.856 | 0.664 | –
40 | CCACUUCAAACAAUCGGUCUC [Fam1A.1 aminoacylation ribozyme variant] | – | 1.71 | 1.59 | –
41 | CCACUUCAAACAAUCGGUCUU [Fam1A.1 aminoacylation ribozyme variant] | 1.56 | 1.69 | 1.5 | –
42 | CCCCACUUCAAUCAAUCGGUC [Fam1B.1 aminoacylation ribozyme variant] | 1.63 | 1.94 | 1.82 | –
43 | CCCGACUUCAAGCAAUCGGUC [Fam1B.1 aminoacylation ribozyme variant] | 1.85 | 1.92 | 1.63 | –
44 | CCGCAUUUCAAGCAAUCGGUC [Fam1B.1 aminoacylation ribozyme variant] | – | 2.48 | 2.36 | –
45 | CCGCGCUUCAAGCAAUCGGUC [Fam1B.1 aminoacylation ribozyme variant] | – | – | 2 | –
46 | CCGCUUCAAACAAUCGGUCUG [Fam1A.1 aminoacylation ribozyme variant] | – | – | 1.77 | –
47 | CGACUUCAAGCAAUCGGUCUG [Fam1A.1 aminoacylation ribozyme variant] | 1.58 | 1.56 | 1.41 | –
48 | CUACUUCAAACAAUCCUUCUG [Fam1A.1 aminoacylation ribozyme variant] | – | 0.665 | 0.603 | –
49 | CUACUUCAAACAAUCUGGCUG [Fam1A.1 aminoacylation ribozyme variant] | 0.844 | 0.963 | 0.963 | –
50 | CUACUUGAAACAAUCUGUCUG [Fam1A.1 aminoacylation ribozyme variant] | – | 0.657 | 0.655 | –
51 | CUAGUUCAAACAAUGGGUCUG [Fam1A.1 aminoacylation ribozyme variant] | – | – | 1.14 | –
52 | CUUACCCUGGUCAUCGAGUGC [Fam2.1 aminoacylation ribozyme variant] | – | 1.84 | 1.54 | –
53 | CUUACCUUGGUCAUCGAGUGA [Fam2.1 aminoacylation ribozyme variant] | – | – | 1.99 | –
54 | CUUAGCCUGGUCAUCGAGUGA [Fam2.1 aminoacylation ribozyme variant] | – | 1.95 | 1.94 | –
55 | GUACUUCAAACAAUCGGUCGG [Fam1A.1 aminoacylation ribozyme variant] | 1.81 | 1.66 | 1.98 | –
56 | GUACUUCAAUCAAUCGGUCUG [Fam1A.1 aminoacylation ribozyme variant] | 1.43 | 1.64 | 1.7 | –
57 | UUUCACCUAGUUCAUCGGGUG [Fam2.2 aminoacylation ribozyme variant] | 2.6 | 3.09 | 2.44 | –
